Reference: patent publication US20240344241A1, “PROTEINACEOUS MOLECULES AND USES THEREFOR” (THE UNIVERSITY OF QUEENSLAND, priority 2021, published 2024)
Read-outs that look alike come from different tables or passages of the source. For some of these results: For at least one compound, name, drawing or mass did not settle the structure. Some of these results come from one statement about several compounds together. Bridge positions count the residues as written; N and C are the ends. Peptide text beside a SMILES is read from it.

Chains of the proteins cited; added tags and fusions are not shown. Residues count along the entry.
UniProt P00748, 373-615 limits assumed: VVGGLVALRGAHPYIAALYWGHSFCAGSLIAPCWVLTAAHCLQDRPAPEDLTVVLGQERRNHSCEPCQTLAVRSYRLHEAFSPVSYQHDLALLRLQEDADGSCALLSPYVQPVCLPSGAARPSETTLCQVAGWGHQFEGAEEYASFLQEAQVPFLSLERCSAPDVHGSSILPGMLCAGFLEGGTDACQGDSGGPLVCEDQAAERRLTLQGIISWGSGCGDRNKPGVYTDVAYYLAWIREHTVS

Key:
[1] = target: T1, biotinylated human β-FXIIa (Homo sapiens, UniProt P00748); experiment: Surface plasmon resonance binding to FXIIa; conditions: for fold higher affinity for FXIIa than MCoTI-II: ratio of KD values
T1 construct: purchased Molecular Innovations
Experimental: Binding kinetics of each peptide towards biotinylated human β-FXIIa (Molecular Innovations) and non-labelled zymogen FXII (Haematologic Technologies) were determined using a Biacore T200 machine (Cytiva). For β-FXIIa binding measurements, the running buffer was HBS-EP+(10 mM HEPES, 150 mM NaCl, 3 mM EDTA and 0.05% (v/v) surfactant P20, pH 7.4). Biotinylated β-FXIIa was immobilized on a Sensor Chip CAP (Cytiva) using Biotin CAPture Reagent (Cytiva). A series of concentrations of each peptide were injected as analyte and the binding kinetics were modelled using a 1:1 binding model. Regeneration of sensor surface was performed after each measurement cycle. For FXII binding measurements, the running buffer was PBST (137 mM NaCl, 2.7 mM KCl, 10 mM Na2HPO4, 1.8 mM KH2PO4, 0.05% Tween-20). Non-labelled FXII was immobilized on a Sensor Chip CM5 (Cytiva) using Amine Coupling Kit (Cytiva), achieving a final immobilization level of 2500 RU. Each peptide was flowed through immobilized FXII at 5 μM for 60 s and allowed dissociation for 150 s.

[2] = target: T2, bovine trypsin (Bos taurus, UniProt P00760); experiment: Surface plasmon resonance binding to trypsin; conditions: trypsin versus FXIIa KD
T2 sequence (P00760 24-246): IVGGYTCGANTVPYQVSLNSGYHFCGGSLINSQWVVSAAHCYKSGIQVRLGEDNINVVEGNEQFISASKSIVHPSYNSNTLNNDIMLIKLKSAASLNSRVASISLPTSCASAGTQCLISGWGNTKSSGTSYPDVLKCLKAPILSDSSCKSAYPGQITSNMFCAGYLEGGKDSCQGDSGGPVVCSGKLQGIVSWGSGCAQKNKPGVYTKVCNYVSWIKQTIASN

[3] = target: T3, Human β-FXIIa (Homo sapiens, UniProt P00748); experiment: FXIIa competitive inhibition assay, colorimetric substrate Ac-QRFR-pNA; type: biochemical; conditions: Table 7, cyclic form of the peptide
T3 construct: Human β-FXIIa was obtained from Molecular Innovations, together with human FXa, human FXIa, human α-thrombin, and human plasma kallikrein; purchased Molecular Innovations; host or cells: purified from human plasma
Experimental: The activity of acyclic and cyclic MCoFx1-5 and analogues thereof was assessed in competitive inhibition assays, as previously described in Swedberg et al. (2016) J Med Chem, 59: 7287-7292. Human β-FXIIa was obtained from Molecular Innovations, together with human FXa, human FXIa, human α-thrombin, and human plasma kallikrein. Human cationic trypsin and human plasmin were obtained from Sigma-Aldrich, and recombinant human matriptase was sourced from R&D Systems. Recombinant human urokinase (uPA) and recombinant human tissue plasminogen activator (tPA) were expressed in Expi293 cells, as previously described in Li et al. (2019) Chembiochem, 20: 46-50. […] After adding 100 μM Ac-QRFR-pNA substrate (KM=162 μM), enzymatic activity was measured by monitoring release of the pNA moiety using a TECAN infinite M1000 Pro plate reader (A=405 nm, reading interval, 10 s; assay time course, 7 min). […] Substrate kinetic constants (Michaelis-Menten) and inhibition constants (Morrison K) were determined by non-linear regression using Prism 7 (GraphPad). […] For assays using a fluorescent substrate (peptide-4-methylcoumaryl-7-amide, MCA), black low-binding 96-well plates were used and activity was measured using a TECAN infinite M1000 pro plate reader (λex 360 nm, λem 460 nm, reading interval, 30 s; assay time course, 5-30 min).

In the case of `CC[C@H](C)[C@@H]1NC(=O)[C@@H]2CSSC[C@@H]3NC(=O)[C@H](CCCNC(=N)N)NC(=O)CNC(=O)CNC(=O)[C@H](CC(=O)O)NC(=O)[C@H](CO)NC(=O)CNC(=O)[C@H](CO)NC(=O)CNC(=O)[C@@H]4CSSC[C@H](NC(=O)[C@H](CC(=O)O)NC(=O)[C@H](CO)NC(=O)[C@H](CC(=O)O)NC(=O)[C@H](CCCNC(=N)N)NC(=O)[C@H](CCCNC(=N)N)NC(=O)[C@H](CSSC[C@H](NC1=O)C(=O)N[C@@H](C)C(=O)N[C@@H](CCCNC(=N)N)C(=O)NCC(=O)NCC(=O)N[C@@H](CC(C)C)C(=O)N4)NC(=O)[C@H](Cc1c[nH]c4ccccc14)NC(=O)[C@H](CCCNC(=N)N)NC(=O)[C@H](CC(C)C)NC(=O)[C@H](CC(C)C)NC(=O)[C@H](CCCNC(=N)N)NC(=O)[C@@H]1CCCN1C3=O)C(=O)N1CCC[C@H]1C(=O)NCC(=O)N[C@@H](C)C(=O)N2` [MCoFx3 cyclic] (cyclo(ACICARGGLCGSGSDGGRCPRLLRWCRRDSDCPG); disulfide 2-19, 4-26, 10-32), the “fold higher affinity for FXIIa than MCoTI-II” value [1] is reported as 2-3 fold and the “fold higher affinity for trypsin” value [2] is reported as 2-8 fold.

In the case of `CC[C@H](C)[C@@H]1NC(=O)[C@@H]2CSSC[C@@H]3NC(=O)[C@H](C(C)C)NC(=O)CNC(=O)CNC(=O)[C@H](CC(=O)O)NC(=O)[C@H](CO)NC(=O)CNC(=O)[C@H](CO)NC(=O)CNC(=O)[C@@H]4CSSC[C@H](NC(=O)[C@H](CC(=O)O)NC(=O)[C@H](CO)NC(=O)[C@H](CC(=O)O)NC(=O)[C@H](CCCNC(=N)N)NC(=O)[C@H](CCCNC(=N)N)NC(=O)[C@H](CSSC[C@H](NC1=O)C(=O)N[C@@H](Cc1ccc(O)cc1)C(=O)N1CCC[C@H]1C(=O)N[C@@H]([C@@H](C)O)C(=O)N[C@@H](CCCCN)C(=O)N[C@@H](Cc1c[nH]c5ccccc15)C(=O)N4)NC(=O)[C@H](CCCNC(=N)N)NC(=O)[C@H](Cc1c[nH]c4ccccc14)NC(=O)CNC(=O)[C@H](C(C)C)NC(=O)[C@H](CCCNC(=N)N)NC(=O)[C@@H]1CCCN1C3=O)C(=O)N1CCC[C@H]1C(=O)NCC(=O)N[C@@H](C)C(=O)N2` [MCoFx4 cyclic] (cyclo(ACICYPTKWCGSGSDGGVCPRVGWRCRRDSDCPG); disulfide 2-19, 4-26, 10-32), the “fold higher affinity for FXIIa than MCoTI-II” value [1] is reported as 2-3 fold and the “fold higher affinity for trypsin” value [2] is reported as 2-8 fold.

For `CC[C@H](C)[C@@H]1NC(=O)[C@@H]2CSSC[C@@H]3NC(=O)[C@H](CCCNC(=N)N)NC(=O)CNC(=O)CNC(=O)[C@H](CC(=O)O)NC(=O)[C@H](CO)NC(=O)CNC(=O)[C@H](CO)NC(=O)CNC(=O)[C@@H]4CSSC[C@H](NC(=O)[C@H](CC(=O)O)NC(=O)[C@H](CO)NC(=O)[C@H](CC(=O)O)NC(=O)[C@H](CCCNC(=N)N)NC(=O)[C@H](CCCNC(=N)N)NC(=O)[C@H](CSSC[C@H](NC1=O)C(=O)N[C@@H](C(C)C)C(=O)N[C@@H](Cc1ccccc1)C(=O)N[C@@H](CCCCN)C(=O)N[C@@H](CCCCN)C(=O)N[C@@H](Cc1c[nH]cn1)C(=O)N4)NC(=O)[C@H](C(C)C)NC(=O)[C@H](CC(C)C)NC(=O)[C@H](Cc1ccc(O)cc1)NC(=O)CNC(=O)CNC(=O)[C@H](CS)NC3=O)C(=O)N1CCC[C@H]1C(=O)NCC(=O)N[C@@H](C)C(=O)N2` [MCoFx5 cyclic] (cyclo(DGGRCCGGYLVCRRDSDCPGACICVFKKHCGSGS); disulfide 5-22, 12-24, 18-30), the Kd ([1]; Table 7, FXIIa, cyclic form of the peptide, read-out: KD (nM) Cyclic) was 82 ± 3 nM, the Kd ([1]; Table 8, cyclic form, read-out: KD (nM) FXIIa Cyclic) was 81.8 ± 3.2 nM and the Ki [3] was 207 ± 9 nM.
